Measurements reported in PubChem BioAssay AID743454 (Peter MacCallum Cancer Centre, 2014).

Screen: 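Search for knock-downs that restore vorinostat killing in resistant colon cancer cells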 (primary screen)
System: human HCT116-VR colon cancer cells, selected for vorinostat resistance
Reagent: siRNA pool against human genes, 40 nM siRNA pool
Timing: vorinostat for 24 h, read-out about 72 h after transfection
Conditions: vorinostat at 2.5 µM final
Measured: 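Cell viability by CellTiter-Fluor and caspase 3/7 activity by luminescence, each scaled to mock wells per plate, duplicates averaged, then robust z-scored over all plates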
Reading the numbers: viability robust z-score: higher = more viable cells than screen typical; caspase robust z-score: higher = more caspase 3/7 activity than screen typical
Hit rule: 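Hits are knock-downs in viability class RV1/RV2 or caspase class CA1/CA2, excluding ones that killed cells in the no-drug cell-count arm; hits then retested with single siRNAs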
Here is a random part of about 18,000 reagents tested. In the full data, 450 (2.5%) got an active call. 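Single biological run; no consistent viability z cut-off exists, so the class columns, not z-scores, define the calls.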 Unmarked entries are inactive. The numbers tell different reagents against one gene apart.

target	reagent no.	viability hit class	caspase hit class	viability robust z-score	caspase robust z-score
STAG3L1	1	no change	no change	-0.72	-0.28
SYT2	1	no change	no change	0.89	0.17
INSIG2	1	no change	no change	0.48	-0.38
GYG1	1	no change	no change	0.32	-0.24
NUCB2	1	no change	no change	0.97	-0.78
RAI1	1	no change	no change	0.21	-0.83
KMT2A	1	no change	no change	0.97	-0.16
ST7L	1	no change	no change	-1.4	0.18
SLC38A10	1	no change	no change	-1.23	0.4
FST	1	no change	no change	0.71	-0.29
ARNT	1	no change	no change	-1.17	3.66
NDUFB11	1	no change	no change	1.4	-0.76
TPGS2	1	no change	no change	1.21	-0.9
CHURC1	1	no change	no change	0.36	-1.17
DCDC1	1	no change	no change	-0.11	-1.17
DCDC1	2	no change	no change	0.69	-0.48
IRF6	1	no change	no change	0.85	0.11
TRIB1	1	no change	no change	0.64	-0.29
DNAH5	1	no change	no change	1.09	-0.1
CRKL	1	no change	no change	0.79	-0.66
OR4P4	1	no change	no change	1.09	-1.17
MRPL43	1	no change	no change	0.18	-0.64
RANBP9	1	no change	no change	-0.85	0.76
SLCO5A1	1	no change	no change	0.45	-0.87
RXRA	1	no change	no change	0.45	2.21
KNG1	1	no change	no change	0.31	-0.36
NUDT9	1	no change	no change	-0.11	0.62
NECTIN4	1	no change	no change	-1.31	-0.96
CFAP74	1	no change	no change	-0.02	-0.55
CFAP74	2	no change	no change	-0.4	2.33
ERI2	1	no change	no change	1.54	0.38
BTNL8	1	no change	no change	0.53	-1.12
FLNB	1	no change	no change	-0.76	1.83
DNAH3	1	no change	no change	0.68	-0.84
FGF2	1	no change	no change	-0.32	1.12
NEMF	1	no change	no change	0.22	1.54
PRR7	1	no change	no change	0.13	3.32
SIX6	1	no change	no change	-0.26	-0.7
HS3ST4	1	no change	no change	1	-0.43
CLEC18C	1	no change	no change	0.57	-0.82
MRGPRX4	1	no change	no change	0.1	0.61
XRCC3	1	no change	no change	-1.12	2.24
NFE2	1	no change	no change	0.72	0.62
CLYBL	1	no change	no change	0.23	-0.19
MORF4L2	1	no change	no change	0.32	-0.02
MRPL30	1	no change	no change	-0.4	1.56
SLC6A6	1	no change	no change	0.36	-0.57
EQTN	1	no change	no change	0.04	-0.44
DXO	1	no change	no change	-1.04	2.13
DNAJC3	1	no change	no change	0.03	1.55
SPINK6	1	no change	no change	-1.02	0.52
UGGT1	1	no change	no change	0.11	-0.56
SEC31B	1	no change	no change	-0.32	2.81
CLTC	1	no change	no change	-1.17	-0.69
UBE2G2	1	no change	no change	-1.24	-0.38
H3C6	1	no change	no change	1.38	-0.64
CEP57L1	1	no change	no change	0.13	-0.29
